# At least one structure is not confirmed: it was looked up by name or label, or the drawing left a doubt.
# System: microglia
# Assay: cAMP pathway agents as co-activators with Aβ of microglia
# Format: cell-based
# From the text: Two of the four PGE2 isoforms, EP2 and EP4, are coupled to Gs and elevate cAMP levels upon activation. EP3 is coupled to Gi and inhibits cAMP production while EP1 increased Ca^++i. As a first step in distinguishing the receptor isoform mediating the PGE2 signal, the second messenger in the Aβ coactivation pathway was identified.
smiles,measurement,value
C=C[C@@]1(C)CC(=O)[C@]2(O)[C@@]3(C)[C@@H](O)CCC(C)(C)[C@@H]3[C@H](O)[C@H](OC(C)=O)[C@@]2(C)O1 [forskolin],substitution for PGE2 as co-activator with Aβ,substitute for PGE2 as an Aβ co-activator
